Measured values: PubChem BioAssay AID2685 (National Center for Advancing Translational Sciences (NCATS), 2010)
The other results are listed elsewhere or left out. The main result of the screen is listed elsewhere. These columns were measured beside it and carry no call. Most of these compounds were active or inconclusive in the main read-out, so they are no random draw. Words in brackets tell the shape of the fitted curve; partial curves, single points and poor fits give uncertain potencies.

Experiment: qHTS Assay for Lipid Storage Modulators in Drosophila S3 Cells;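 on cell number change: cells counted by Cell Tracker Red CMTPX staining in the red channel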
Conditions: BODIPY lipid droplet fluorescence, 18-24 h; for cell number change: measured here: cell count max response, cells fed with added oleic acid
In short: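 Laser-scanning cytometry quantifies lipid droplet accumulation (500–530 nm total intensity; droplet/cell object ratio) in oleic acid-fed (400 uM added) Drosophila S3 cells treated with a concentration series. 20 uM Triacsin C defined 100% inhibition.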

[1] = measured here: lipid fluorescence (Fed channel) AC50, cells fed with added oleic acid
[2] = measured here: cell number channel AC50, cells fed with added oleic acid

| Compound | cell number change | AC50 [1] | AC50 [2] |
| --- | --- | --- | --- |
| C=CCn1c(CCNC(=O)c2ccccc2F)nnc1SCC(=O)Nc1ccc(OC)cc1 | -30.1% |  |  |
| Cc1ccccc1CNC(=O)CCNS(=O)(=O)c1ccc(OC(F)(F)F)cc1 | 10.2% | 0.116 µM [falling, full curve, poor fit] |  |
| Cc1ccc(C(=O)C(=S)N2CCOCC2)cc1 | 130% | 5.8 µM [falling, full curve, poor fit] | 29.1 µM [rising, single point] |
| CC1Cc2ccccc2N1C(=O)CN1C(=O)NC2(CCCCC2)C1=O (centres undefined) | -39.4% | 29.1 µM [falling, single point] | 29.1 µM [falling, single point] |
| NNC(=O)c1oc2nc(-c3cccs3)cc(-c3ccco3)c2c1N | 440% |  | 23.1 µM [rising, partial curve] |
| CCOC(=O)c1ccc[n+](CC(=O)c2ccc(NC(=O)c3ccccc3)cc2)c1 |  | 6.51 µM [falling, partial curve, poor fit] | 0.082 µM [falling, full curve, poor fit] |
| Cc1ccc(S(=O)(=O)N2CCOCC2)cc1NC(=O)COC(=O)c1ccc(OCc2c(C)noc2C)cc1 | 38.7% | 32.6 µM [rising, single point] | 29.1 µM [rising, single point] |
| Cc1cccc(N2C(=O)CC(N3CCN(c4cccc(C(F)(F)F)c4)CC3)C2=O)c1 (centres undefined) | -17.3% | 29.1 µM [rising, single point] |  |
| COC(=O)C(Cc1ccccc1)NC(=O)CNS(=O)(=O)c1ccc(Br)cc1 (centres undefined) | 16.4% |  |  |
| COC(=O)CC(=O)CSc1nc2c(cc1C#N)CCC2 | 2.7% | 9.2 µM [rising, partial curve] |  |
| COc1cc(/C=C2/C(=N)N3N=C(CC(=O)N4CCOCC4)SC3=NC2=O)ccc1OCc1ccccc1 | 28.7% | 29.1 µM [rising, single point] |  |
| Cc1oc(C(=O)O)cc1CSCc1ccoc1C(=O)O | -33.7% | 25.9 µM [falling, partial curve] | 29.1 µM [falling, partial curve, poor fit] |
| COc1ccc(S(=O)(=O)N2CCOC23CCN(C(=O)c2ccccc2Br)CC3)cc1 | 40.3% |  | 20.6 µM [rising, partial curve] |
| COc1ccc(Nc2cc(C)c3ccc(O)cc3n2)cc1 |  |  | 0.58 µM [rising, single point] |
| COc1ccc2nc(NC(=O)CS(=O)(=O)c3ccc(C)cc3)sc2c1 | 19.7% | 29.1 µM [falling, single point] |  |
| COc1ccc(NC(=O)CSc2nc3ccccc3nc2N2CCOCC2)cc1 | -10.7% | 29.1 µM [falling, single point] |  |
| Cn1nnc(NC(=O)c2ccc([N+](=O)[O-])cc2Cl)n1 | -7.01% |  | 0.103 µM [falling, full curve, poor fit] |
| CC(C)(C)c1ccc(NC(=O)COC(=O)c2ccc(CN3CCCC3=O)cc2)cc1 | 11.7% | 18.4 µM [rising, partial curve, poor fit] |  |
| CCN1CCN(C(=O)c2cc(COc3ccc(C(C)=O)cc3OC)on2)CC1 | -4.58% |  |  |

Molecules listed so far that contain nitrogen in an aromatic ring:

| Compound | cell number change | AC50 [1] | AC50 [2] |
| --- | --- | --- | --- |
| C=CCn1c(CCNC(=O)c2ccccc2F)nnc1SCC(=O)Nc1ccc(OC)cc1 | -30.1% |  |  |
| NNC(=O)c1oc2nc(-c3cccs3)cc(-c3ccco3)c2c1N | 440% |  | 23.1 µM [rising, partial curve] |
| CCOC(=O)c1ccc[n+](CC(=O)c2ccc(NC(=O)c3ccccc3)cc2)c1 |  | 6.51 µM [falling, partial curve, poor fit] | 0.082 µM [falling, full curve, poor fit] |
| Cc1ccc(S(=O)(=O)N2CCOCC2)cc1NC(=O)COC(=O)c1ccc(OCc2c(C)noc2C)cc1 | 38.7% | 32.6 µM [rising, single point] | 29.1 µM [rising, single point] |
| COC(=O)CC(=O)CSc1nc2c(cc1C#N)CCC2 | 2.7% | 9.2 µM [rising, partial curve] |  |
| COc1ccc(Nc2cc(C)c3ccc(O)cc3n2)cc1 |  |  | 0.58 µM [rising, single point] |
| COc1ccc2nc(NC(=O)CS(=O)(=O)c3ccc(C)cc3)sc2c1 | 19.7% | 29.1 µM [falling, single point] |  |
| COc1ccc(NC(=O)CSc2nc3ccccc3nc2N2CCOCC2)cc1 | -10.7% | 29.1 µM [falling, single point] |  |
| Cn1nnc(NC(=O)c2ccc([N+](=O)[O-])cc2Cl)n1 | -7.01% |  | 0.103 µM [falling, full curve, poor fit] |
| CCN1CCN(C(=O)c2cc(COc3ccc(C(C)=O)cc3OC)on2)CC1 | -4.58% |  |  |

The list continues.

| Compound | cell number change | AC50 [1] | AC50 [2] |
| --- | --- | --- | --- |
| Cc1ccc(NC(=O)N2CCCC2C(=O)NCC2CCCO2)cc1 (centres undefined) | 22% |  | 2.31 µM [rising, partial curve, poor fit] |
| O=C(CSc1nc2ccccc2o1)N/N=C/c1ccccc1C(=O)O |  | 36.6 µM [falling, single point] |  |
| COc1ccc(/C=C(\C#N)c2nc3ccccc3[nH]2)cc1O | -14.7% | 29.1 µM [falling, single point] |  |
| CCCCNc1nc2cccnc2s1 | 56.1% |  | 20.6 µM [rising, partial curve] |
| CCN(CC)c1ccc(S(=O)(=O)N2CCOCC2)cc1NC(=O)CSc1cccc[n+]1[O-] | 80.2% | 18.4 µM [rising, partial curve] | 16.4 µM [rising, single point] |
| CCCCOC(=O)c1ccc(NC(=O)C(=O)NCC2CCCO2)cc1 (centres undefined) | 1.92% |  |  |
| CCOC(=O)c1c(NC(=O)CC)sc(C(=O)N2CCCCC2)c1C |  | 0.116 µM [rising, full curve, poor fit] | 0.146 µM [rising, full curve] |
| Cc1ccc(SCC(=O)NCc2ccccc2)cc1 | -1.1% | 0.58 µM [rising, single point] |  |
| COC(=O)C1C(O)=C(C=NCC(C)N=CC2=C(O)C(C(=O)OC)C(C)(C)CC2=O)C(=O)CC1(C)C (centres undefined) | 0.113% | 29.1 µM [rising, single point] |  |
| CCOC(=O)N1[C@@H]2C=C(C)[C@@H]2[C@@H]2[C@@H](C)C(=O)N21 | -21.4% | 0.58 µM [falling, full curve, poor fit] |  |
| CC(C)CN(C(=O)COC(=O)c1ccccn1)c1c(N)n(Cc2ccccc2)c(=O)[nH]c1=O | -7.23% |  |  |
| CCc1cc2c(=O)n(N)c(CCC(=O)O)nc2s1 | 5.9% |  |  |
| Cc1occc1-c1nnc(SCC(=O)N2CCN(c3ccc(F)cc3)CC2)n1C | 33.2% |  | 32.6 µM [rising, single point] |
| C/C(=N\NC(=O)c1ccccc1OCCOc1ccccc1)c1ccccc1F | 118% |  | 2.59 µM [rising, full curve] |
| O=C(CSc1nc2nc(-c3cccs3)cc(C(F)(F)F)c2c(=O)[nH]1)Nc1ccc(F)c(F)c1 | 65% |  | 29.1 µM [rising, single point] |
| O=C(Nc1ccccc1)c1ccccc1O | -1.62% |  |  |
| N=C1/C(=C\c2ccc(OC(=O)c3ccc(F)cc3)cc2)C(=O)N=C2SC(N3CCCC3)=NN12 | 9.8% | 0.103 µM [rising, full curve, poor fit] |  |
| CCc1nc2ccc(C(=O)N(C)CC(=O)Nc3ccc(Cl)c(C(F)(F)F)c3)cc2nc1CC | -45.8% | 7.31 µM [falling, partial curve, poor fit] | 11.6 µM [falling, partial curve, poor fit] |
| COc1cc(NC(=S)NCCc2c[nH]c3ccccc23)c(OC)cc1Cl | -25.8% | 11.6 µM [falling, partial curve, poor fit] |  |

Reformatted bar-delimited: 2 of the compounds above
Compound | cell number change | AC50 [1] | AC50 [2]
CCOC(=O)N1[C@@H]2C=C(C)[C@@H]2[C@@H]2[C@@H](C)C(=O)N21 | -21.4% | 0.58 µM [falling, full curve, poor fit] | 
CC(C)CN(C(=O)COC(=O)c1ccccn1)c1c(N)n(Cc2ccccc2)c(=O)[nH]c1=O | -7.23% |  | 

(more compounds)

| Compound | cell number change | AC50 [1] | AC50 [2] |
| --- | --- | --- | --- |
| Cc1ccnc(NS(=O)(=O)c2ccc(NS(=O)(=O)c3ccc([N+](=O)[O-])cc3)cc2)n1 | 20.5% | 0.103 µM [falling, full curve, poor fit] |  |
| CCOC(=O)N1CCN(C(=O)C2CCN(S(=O)(=O)c3ccc(F)cc3)CC2)CC1 | -54.2% | 23.1 µM [falling, partial curve] | 29.1 µM [falling, partial curve, poor fit] |
| CCCCn1c(N)c(N(CC(C)C)C(=O)CSCc2c(C)noc2C)c(=O)[nH]c1=O | 10.5% |  |  |
| CC1(C)OC1COc1c2ccoc2cc2oc(=O)ccc12 (centres undefined) | 26.8% | 6.51 µM [rising, partial curve, poor fit] | 3.66 µM [rising, full curve, poor fit] |
| Clc1ccc(SCc2nc3ccccc3[nH]2)cc1 | -3.71% | 29.1 µM [falling, single point] |  |
| COc1ccc(S(=O)(=O)Cc2ccc(C(=O)NCc3ccco3)o2)cc1 | 5.93% | 20.6 µM [rising, partial curve] |  |
| C=CCn1c(SCC(=O)c2cccs2)nc2sc(C)cc2c1=O | -18% | 3.26 µM [rising, full curve] |  |
| COC(=O)c1ccc(NC(=O)c2ccccc2N(C)S(=O)(=O)c2ccccc2)cc1 | 53.1% |  | 20.6 µM [rising, single point] |
| O=C(c1cccs1)N1CCN(S(=O)(=O)c2cccc(Cl)c2Cl)CC1 | 78.3% |  | 18.4 µM [rising, single point] |
| CC(=O)NC(CC(=O)Nc1nccs1)c1ccccc1 (centres undefined) | 18.2% | 0.0206 µM [rising, full curve, poor fit] | 0.0326 µM [rising, full curve, poor fit] |
| Cc1cc(N/N=C/c2ccccc2O)c2ccccc2n1 | -53.6% | 6.51 µM [falling, partial curve] | 6.51 µM [falling, full curve] |
| CCCOc1ccc(/C=C/C(=O)Nc2ccc([N+](=O)[O-])cc2C)cc1 | 40.8% | 23.1 µM [rising, single point] | 29.1 µM [rising, single point] |
| C=CCN(CC=C)C(=O)CN1C(=O)NC(C)(c2ccc3cc(OC)ccc3c2)C1=O (centres undefined) | 40.5% |  | 0.0326 µM [rising, full curve, poor fit] |
| CCC1Oc2ccc(C)cc2N(CC(=O)NCC2COc3ccccc3O2)C1=O (centres undefined) | 3.8% | 8.2 µM [rising, partial curve, poor fit] |  |
| CC(=O)Nc1ccc(NC(=O)c2ccccc2Sc2ccc([N+](=O)[O-])cc2Cl)cc1 | -34.7% | 5.8 µM [falling, partial curve] | 13 µM [falling, partial curve, poor fit] |
| CN1CCN(S(=O)(=O)c2cccc(C(=O)Oc3cccc(C#N)c3)c2)CC1 | -19.7% |  | 0.651 µM [falling, full curve, poor fit] |
| COc1ccc(Cn2c(CCC(=O)Nc3ccc(C)c(C)c3)nc3cccnc32)cc1 | -113% |  |  |
| COc1ccc(C2/C(=C(/O)c3ccccc3)C(=O)C(=O)N2c2ccccn2)c(OC)c1 (centres undefined) | 50% | 29.1 µM [rising, partial curve] | 0.0731 µM [rising, full curve, poor fit] |
